Assay results taken from the supplement of paper PMC10849652.
The other results are listed elsewhere or left out.

By UniProt entry, the sequences of proteins in these tests, tags left out. Where a name states a change or a piece, a line headed by the entry shows the natural chain unless it says otherwise.
UniProt Q9H0U3: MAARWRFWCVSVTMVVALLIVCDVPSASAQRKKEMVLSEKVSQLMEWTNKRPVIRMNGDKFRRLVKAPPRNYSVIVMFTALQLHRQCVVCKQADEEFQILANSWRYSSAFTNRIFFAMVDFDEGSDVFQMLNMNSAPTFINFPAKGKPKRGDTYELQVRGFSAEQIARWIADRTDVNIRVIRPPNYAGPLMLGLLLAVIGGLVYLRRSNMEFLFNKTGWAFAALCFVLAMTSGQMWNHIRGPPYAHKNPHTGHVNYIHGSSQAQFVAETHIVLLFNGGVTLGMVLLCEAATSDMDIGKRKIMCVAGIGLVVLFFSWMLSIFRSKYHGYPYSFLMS
UniProt P28482, whole entry, looked up: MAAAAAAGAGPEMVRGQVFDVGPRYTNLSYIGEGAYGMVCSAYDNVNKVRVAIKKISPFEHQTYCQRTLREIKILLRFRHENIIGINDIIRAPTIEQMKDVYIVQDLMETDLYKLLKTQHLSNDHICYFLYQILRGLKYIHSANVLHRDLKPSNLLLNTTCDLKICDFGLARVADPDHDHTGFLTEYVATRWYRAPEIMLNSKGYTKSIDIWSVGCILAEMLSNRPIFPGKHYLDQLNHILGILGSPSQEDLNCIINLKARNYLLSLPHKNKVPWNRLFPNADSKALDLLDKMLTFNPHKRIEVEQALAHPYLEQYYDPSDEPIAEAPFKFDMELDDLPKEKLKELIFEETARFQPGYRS
UniProt P27361, whole entry, looked up: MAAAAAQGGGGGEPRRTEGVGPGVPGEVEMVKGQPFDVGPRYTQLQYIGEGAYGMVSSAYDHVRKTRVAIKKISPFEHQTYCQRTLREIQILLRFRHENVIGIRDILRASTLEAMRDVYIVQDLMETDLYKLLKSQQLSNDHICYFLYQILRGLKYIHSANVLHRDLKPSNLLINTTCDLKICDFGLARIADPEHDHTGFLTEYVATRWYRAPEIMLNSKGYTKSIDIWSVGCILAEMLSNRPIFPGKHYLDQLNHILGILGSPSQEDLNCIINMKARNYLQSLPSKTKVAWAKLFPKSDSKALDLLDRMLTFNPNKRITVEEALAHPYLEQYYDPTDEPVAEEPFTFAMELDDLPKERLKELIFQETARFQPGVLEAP
UniProt Q9UBF1: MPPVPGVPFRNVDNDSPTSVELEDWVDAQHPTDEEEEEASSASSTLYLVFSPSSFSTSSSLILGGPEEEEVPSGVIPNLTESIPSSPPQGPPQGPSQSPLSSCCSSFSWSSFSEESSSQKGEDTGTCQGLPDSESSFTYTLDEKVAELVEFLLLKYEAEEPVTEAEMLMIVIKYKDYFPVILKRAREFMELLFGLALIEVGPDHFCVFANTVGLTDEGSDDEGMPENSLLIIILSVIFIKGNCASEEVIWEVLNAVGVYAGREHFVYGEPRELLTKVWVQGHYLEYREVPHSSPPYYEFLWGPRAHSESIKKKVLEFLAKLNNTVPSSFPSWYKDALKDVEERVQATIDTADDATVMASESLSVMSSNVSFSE
UniProt Q8IWT6: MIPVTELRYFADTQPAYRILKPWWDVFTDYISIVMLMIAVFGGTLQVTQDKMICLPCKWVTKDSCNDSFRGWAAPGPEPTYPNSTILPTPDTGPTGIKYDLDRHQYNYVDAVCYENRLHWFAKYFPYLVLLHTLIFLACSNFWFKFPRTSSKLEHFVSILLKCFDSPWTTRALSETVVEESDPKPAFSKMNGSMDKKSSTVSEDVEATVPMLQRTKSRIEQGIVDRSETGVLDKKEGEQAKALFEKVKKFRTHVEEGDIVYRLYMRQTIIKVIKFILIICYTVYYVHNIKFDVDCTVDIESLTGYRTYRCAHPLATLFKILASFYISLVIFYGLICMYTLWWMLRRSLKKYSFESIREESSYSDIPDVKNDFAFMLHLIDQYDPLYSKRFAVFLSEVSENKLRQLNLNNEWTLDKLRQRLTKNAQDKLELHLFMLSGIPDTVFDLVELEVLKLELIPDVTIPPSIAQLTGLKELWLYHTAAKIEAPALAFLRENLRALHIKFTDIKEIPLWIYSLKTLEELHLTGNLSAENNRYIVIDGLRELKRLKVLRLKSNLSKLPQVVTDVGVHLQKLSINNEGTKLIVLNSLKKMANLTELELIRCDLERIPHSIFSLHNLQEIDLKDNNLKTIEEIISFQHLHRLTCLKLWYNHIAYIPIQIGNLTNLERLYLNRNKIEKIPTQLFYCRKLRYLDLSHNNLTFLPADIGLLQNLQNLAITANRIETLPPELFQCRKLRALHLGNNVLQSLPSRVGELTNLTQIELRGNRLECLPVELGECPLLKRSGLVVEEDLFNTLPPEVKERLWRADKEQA
UniProt Q5VWZ2: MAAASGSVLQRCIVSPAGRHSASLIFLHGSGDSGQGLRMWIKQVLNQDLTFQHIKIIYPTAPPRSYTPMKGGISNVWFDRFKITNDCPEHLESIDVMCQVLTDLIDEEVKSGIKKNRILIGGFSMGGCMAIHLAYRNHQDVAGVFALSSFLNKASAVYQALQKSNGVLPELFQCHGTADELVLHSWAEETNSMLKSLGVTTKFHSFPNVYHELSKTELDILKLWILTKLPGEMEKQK
UniProt P55145: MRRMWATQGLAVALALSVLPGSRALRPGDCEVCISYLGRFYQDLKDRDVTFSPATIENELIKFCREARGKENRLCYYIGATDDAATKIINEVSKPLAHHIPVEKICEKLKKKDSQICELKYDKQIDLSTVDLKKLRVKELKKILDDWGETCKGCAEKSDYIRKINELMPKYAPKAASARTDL
UniProt Q9Y6R4: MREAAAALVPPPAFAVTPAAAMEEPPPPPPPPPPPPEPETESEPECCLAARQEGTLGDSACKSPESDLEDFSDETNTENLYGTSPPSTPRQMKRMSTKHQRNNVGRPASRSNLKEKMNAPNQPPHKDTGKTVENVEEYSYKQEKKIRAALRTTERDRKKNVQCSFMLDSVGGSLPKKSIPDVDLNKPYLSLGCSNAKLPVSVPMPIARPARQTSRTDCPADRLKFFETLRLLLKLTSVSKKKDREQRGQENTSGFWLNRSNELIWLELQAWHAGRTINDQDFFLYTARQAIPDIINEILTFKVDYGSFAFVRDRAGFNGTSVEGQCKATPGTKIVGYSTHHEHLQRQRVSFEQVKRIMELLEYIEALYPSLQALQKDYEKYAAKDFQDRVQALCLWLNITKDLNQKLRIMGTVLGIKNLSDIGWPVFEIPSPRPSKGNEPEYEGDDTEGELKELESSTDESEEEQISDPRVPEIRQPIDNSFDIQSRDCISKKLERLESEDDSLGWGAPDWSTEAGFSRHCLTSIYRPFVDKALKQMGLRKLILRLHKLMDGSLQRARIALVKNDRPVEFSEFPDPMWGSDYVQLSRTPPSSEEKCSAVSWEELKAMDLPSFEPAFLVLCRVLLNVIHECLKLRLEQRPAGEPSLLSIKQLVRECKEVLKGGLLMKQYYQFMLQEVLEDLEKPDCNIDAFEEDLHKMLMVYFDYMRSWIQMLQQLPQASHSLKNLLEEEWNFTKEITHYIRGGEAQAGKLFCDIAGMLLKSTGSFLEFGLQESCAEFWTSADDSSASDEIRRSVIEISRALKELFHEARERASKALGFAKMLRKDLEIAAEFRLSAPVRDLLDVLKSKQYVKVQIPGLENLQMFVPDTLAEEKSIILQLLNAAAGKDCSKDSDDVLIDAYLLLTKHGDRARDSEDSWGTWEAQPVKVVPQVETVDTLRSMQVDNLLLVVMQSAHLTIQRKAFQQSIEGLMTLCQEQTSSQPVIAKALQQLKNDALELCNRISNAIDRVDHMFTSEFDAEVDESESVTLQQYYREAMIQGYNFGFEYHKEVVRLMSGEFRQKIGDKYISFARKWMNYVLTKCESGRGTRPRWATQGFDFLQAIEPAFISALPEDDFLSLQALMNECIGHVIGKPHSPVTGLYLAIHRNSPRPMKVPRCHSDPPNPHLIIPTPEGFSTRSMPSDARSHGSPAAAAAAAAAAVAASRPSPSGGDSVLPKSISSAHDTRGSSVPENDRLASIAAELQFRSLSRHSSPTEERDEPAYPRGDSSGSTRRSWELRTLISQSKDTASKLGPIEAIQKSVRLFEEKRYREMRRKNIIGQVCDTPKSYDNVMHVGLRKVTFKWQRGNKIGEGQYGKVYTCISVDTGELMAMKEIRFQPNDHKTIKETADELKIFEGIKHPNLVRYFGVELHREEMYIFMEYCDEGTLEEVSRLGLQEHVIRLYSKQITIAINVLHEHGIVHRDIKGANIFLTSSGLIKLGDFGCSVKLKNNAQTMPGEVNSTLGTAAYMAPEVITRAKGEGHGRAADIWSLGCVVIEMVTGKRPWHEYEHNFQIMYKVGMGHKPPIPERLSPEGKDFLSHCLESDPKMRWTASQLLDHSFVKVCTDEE
UniProt Q96QZ7: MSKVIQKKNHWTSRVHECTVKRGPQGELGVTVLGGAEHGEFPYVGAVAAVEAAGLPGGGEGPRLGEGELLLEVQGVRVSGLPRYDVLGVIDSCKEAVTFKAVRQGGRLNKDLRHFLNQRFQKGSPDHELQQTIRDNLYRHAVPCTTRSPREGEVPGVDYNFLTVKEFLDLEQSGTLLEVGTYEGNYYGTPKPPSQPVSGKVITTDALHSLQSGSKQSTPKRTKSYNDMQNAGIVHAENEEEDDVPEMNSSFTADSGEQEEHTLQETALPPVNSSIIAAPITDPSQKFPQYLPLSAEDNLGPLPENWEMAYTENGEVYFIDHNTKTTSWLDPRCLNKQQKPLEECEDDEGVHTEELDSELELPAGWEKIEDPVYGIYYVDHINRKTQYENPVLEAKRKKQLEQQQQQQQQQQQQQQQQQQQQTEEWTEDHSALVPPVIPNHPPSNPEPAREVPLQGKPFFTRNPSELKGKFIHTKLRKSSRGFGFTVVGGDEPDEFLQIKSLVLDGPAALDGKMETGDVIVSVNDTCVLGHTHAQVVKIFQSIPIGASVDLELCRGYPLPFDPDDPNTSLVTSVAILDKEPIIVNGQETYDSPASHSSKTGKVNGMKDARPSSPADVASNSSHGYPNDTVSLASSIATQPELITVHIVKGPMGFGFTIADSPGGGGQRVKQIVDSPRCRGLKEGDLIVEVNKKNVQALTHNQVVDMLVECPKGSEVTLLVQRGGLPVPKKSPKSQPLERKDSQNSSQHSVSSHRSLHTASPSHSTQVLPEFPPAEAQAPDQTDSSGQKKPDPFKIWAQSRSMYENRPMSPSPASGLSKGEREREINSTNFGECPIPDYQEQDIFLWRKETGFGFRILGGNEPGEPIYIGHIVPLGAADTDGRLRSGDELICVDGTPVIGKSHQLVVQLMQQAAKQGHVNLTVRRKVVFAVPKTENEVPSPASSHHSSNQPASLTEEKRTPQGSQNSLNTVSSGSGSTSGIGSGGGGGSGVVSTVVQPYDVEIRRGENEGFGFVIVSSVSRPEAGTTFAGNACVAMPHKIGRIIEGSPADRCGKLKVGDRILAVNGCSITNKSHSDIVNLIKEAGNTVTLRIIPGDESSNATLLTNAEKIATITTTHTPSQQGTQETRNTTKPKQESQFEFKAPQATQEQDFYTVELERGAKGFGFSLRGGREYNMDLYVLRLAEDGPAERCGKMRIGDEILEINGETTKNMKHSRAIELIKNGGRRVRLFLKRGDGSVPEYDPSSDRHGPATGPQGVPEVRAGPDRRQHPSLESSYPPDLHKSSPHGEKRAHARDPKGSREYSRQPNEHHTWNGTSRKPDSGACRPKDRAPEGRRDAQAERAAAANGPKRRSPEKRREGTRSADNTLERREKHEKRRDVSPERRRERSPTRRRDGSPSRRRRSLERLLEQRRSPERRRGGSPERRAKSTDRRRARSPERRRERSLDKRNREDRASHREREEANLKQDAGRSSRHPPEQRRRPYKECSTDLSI
UniProt Q8TDW0: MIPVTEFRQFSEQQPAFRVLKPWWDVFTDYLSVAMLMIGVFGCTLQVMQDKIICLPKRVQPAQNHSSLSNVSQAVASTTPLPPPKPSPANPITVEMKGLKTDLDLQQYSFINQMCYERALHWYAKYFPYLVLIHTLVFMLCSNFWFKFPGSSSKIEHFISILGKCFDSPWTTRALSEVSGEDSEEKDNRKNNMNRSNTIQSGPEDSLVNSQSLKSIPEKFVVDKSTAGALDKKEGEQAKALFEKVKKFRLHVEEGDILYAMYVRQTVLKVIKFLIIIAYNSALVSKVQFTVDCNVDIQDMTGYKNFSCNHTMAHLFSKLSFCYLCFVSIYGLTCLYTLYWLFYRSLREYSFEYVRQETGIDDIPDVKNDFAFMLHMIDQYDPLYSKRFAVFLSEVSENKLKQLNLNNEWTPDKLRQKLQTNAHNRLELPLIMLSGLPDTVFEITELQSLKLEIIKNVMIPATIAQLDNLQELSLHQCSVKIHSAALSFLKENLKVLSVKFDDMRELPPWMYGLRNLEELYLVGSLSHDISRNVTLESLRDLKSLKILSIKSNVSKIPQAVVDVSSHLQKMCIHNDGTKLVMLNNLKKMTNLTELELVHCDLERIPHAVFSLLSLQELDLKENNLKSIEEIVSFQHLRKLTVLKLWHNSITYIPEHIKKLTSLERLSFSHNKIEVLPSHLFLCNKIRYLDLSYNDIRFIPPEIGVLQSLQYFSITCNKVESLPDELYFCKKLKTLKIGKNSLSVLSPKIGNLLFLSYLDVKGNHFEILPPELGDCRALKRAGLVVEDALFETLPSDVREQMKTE

Columns and labels:
Assay in all cases: log2 fold change, soluble protein after heating vs DMSO (PISA); higher = thermal stabilisation; K562 cells, 10 uM, 30 min; active = over 0.2 and 3.5 SD of the protein, either way, in both replicates (recomputed)
[1] = compound: COC1=CC=C(C=C1)CN2C=CC3=C2C=C(C=C3)C(=O)NO
Procedure, shortened: (§1)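 Values are thermal stability changes relative to control samples and are taken from duplicates. They are stated as log2 fold changes. Before quantification by TMTpro 16plex LC-MS/MS with equalised channel sums, K562 cells at 2×10^6 cells/mL were treated with 10 μM compound for 30 min, heated in aliquots for 3 min across 48°C-58°C, pooled, extracted in PBS with 0.5% NP-40 at 4°C, and centrifuged at 21,000xg for 90 min to give the soluble supernatant.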

[2] = compound: CON(C)C(=O)N1N=C(c2cc(F)ccc2F)S[C@@]1(CCCN)c1ccccc1 [filanesib]
Procedure, shortened: as §1

[3] = compound: CO[C@H]1C[C@@H]2CC[C@@H](C)[C@@](O)(O2)C(=O)C(=O)N2CCCC[C@H]2C(=O)O[C@H]([C@H](C)C[C@@H]2CC[C@H](n3cnnn3)[C@H](OC)C2)CC(=O)[C@H](C)/C=C(\C)[C@@H](O)[C@@H](OC)C(=O)[C@H](C)C[C@H](C)/C=C/C=C/C=C/1C [zotarolimus]
Procedure, shortened: as §1

[4] = compound: COc1cc(C(=O)O)ccc1NC(=O)[C@@H]1N[C@@H](CC(C)(C)C)[C@](C#N)(c2ccc(Cl)cc2F)[C@H]1c1cccc(Cl)c1F [idasanutlin]
Procedure, shortened: as §1

[5] = compound: COc1cc(Nc2ncc3c(n2)-c2ccc(Cl)cc2C(c2c(F)cccc2OC)=NC3)ccc1C(=O)O [alisertib]
Procedure, shortened: as §1

[6] = compound: COc1cc2nc(-c3cc(F)ccc3O)nc(N[C@@H]3CNC[C@H]3C(C)(C)O)c2cc1OC
Procedure, shortened: as §1

[7] = compound: COc1cc2ncnc(Nc3ccc(F)c(Cl)c3)c2cc1OCCCN1CCOCC1 [gefitinib]
Procedure, shortened: as §1

[8] = compound: COc1cccc2cc(-c3nc([C@H]4CC[C@H](C(=O)O)CC4)n4ncnc(N)c34)[nH]c12
Procedure, shortened: as §1

[9] = compound: CS(=O)(=O)CCNCc1ccc(-c2ccc3ncnc(Nc4ccc(OCc5cccc(F)c5)c(Cl)c4)c3c2)o1 [lapatinib]
Procedure, shortened: as §1

[10] = compound: CS(=O)(=O)N1CCN(Cc2cc3nc(-c4cccc5[nH]ncc45)nc(N4CCOCC4)c3s2)CC1 [pictilisib]
Procedure, shortened: as §1

Measured: log2 fold change

MAGT1 (UniProt Q9H0U3)
inactive: [1] -0.087 | [2] 0.028 | [3] 0.011 | [4] 0.007 | [5] -0.026 | [6] -0.003 | [7] 0.044 | [8] -0.007 | [9] 0.087 | [10] -0.034

MAPK1 (UniProt P28482)
inactive: [1] -0.007 | [2] -0.035 | [3] -0.001 | [4] -0.045 | [5] -0.03 | [6] -0.024 | [7] 0.003 | [8] 0.043 | [9] -0.016 | [10] 0.002

LYN (UniProt P07948)
inactive: [1] -0.074 | [2] 0.021 | [3] 0.07 | [4] -0.01 | [5] 0.002 | [6] 0.259 | [7] -0.036 | [8] 0.081 | [9] 0.011 | [10] 0.112

MAPK3 (UniProt P27361)
inactive: [1] 0.137 | [2] -0.133 | [3] 0.034 | [4] -0.067 | [5] -0.055 | [6] -0.058 | [7] -0.019 | [8] 0.026 | [9] 0.011 | [10] -0.051

MAP2K1 (UniProt Q02750)
inactive: [1] 0.022 | [2] -0.05 | [3] -0.007 | [4] -0.047 | [5] -0.048 | [6] 0.02 | [7] -0.011 | [8] 0.029 | [9] -0.045 | [10] 0.04

MAGEC2 (UniProt Q9UBF1)
inactive: [1] 0.018 | [2] -0.032 | [3] 0.039 | [4] -0.045 | [5] -0.044 | [6] 0.015 | [7] -0.018 | [8] -0.005 | [9] -0.004 | [10] 0.058

MAGEB1 (UniProt P43366)
inactive: [1] -0.047 | [2] 0.5 | [3] 0.099 | [4] 0.181 | [5] -0.143 | [6] -0.128 | [7] 0.047 | [8] -0.27 | [9] 0.139 | [10] 0.008

LRRC8A (UniProt Q8IWT6)
inactive: [1] -0.061 | [2] 0.243 | [3] -0.019 | [4] 0.054 | [5] -0.196 | [6] 0.021 | [7] -0.065 | [8] -0.034 | [9] 0.005 | [10] -0.052

MACO1 (UniProt Q8N5G2)
inactive: [1] -0.028 | [2] 0.064 | [3] -0.04 | [4] 0.047 | [5] -0.01 | [6] -0.071 | [7] 0.027 | [8] 0.01 | [9] 0.029 | [10] -0.04

LSM8 (UniProt O95777)
inactive: [1] -0.065 | [2] -0.012 | [3] -0.008 | [4] -0.031 | [5] -0.023 | [6] 0.025 | [7] -0.013 | [8] 0.051 | [9] -0.008 | [10] 0.022

LRRFIP1 (UniProt Q32MZ4)
inactive: [1] -0.014 | [2] 0.022 | [3] -0.034 | [4] 0.019 | [5] -0.031 | [6] 0.023 | [7] -0.007 | [8] 0.025 | [9] -0.012 | [10] -0.027

LYPLAL1 (UniProt Q5VWZ2)
inactive: [1] 0.032 | [2] -0.064 | [3] 0.035 | [4] -0.082 | [5] 0.021 | [6] 0.018 | [7] -0.029 | [8] 0.02 | [9] 0.002 | [10] 0.081

LUC7L3 (UniProt O95232)
inactive: [1] 0.106 | [2] 0.083 | [3] 0.003 | [4] 0.031 | [5] -0.009 | [6] 0.021 | [7] -0.04 | [8] 0.011 | [9] 0.045 | [10] 0.011

MANF (UniProt P55145)
inactive: [1] -0.032 | [2] -0.057 | [3] -0.043 | [4] -0.012 | [5] -0.016 | [6] -0.017 | [7] 0.011 | [8] 0.019 | [9] -0.014 | [10] 0.017

MAP3K4 isoform 2 (UniProt Q9Y6R4)
inactive: [1] 0.004 | [2] -0.037 | [3] 0.003 | [4] -0.023 | [5] -0.043 | [6] 0.03 | [7] 0.034 | [8] 0.086 | [9] 0.024 | [10] 0.11

MAPKAPK2 (UniProt P49137)
inactive: [1] 0.066 | [2] -0.06 | [3] -0.012 | [4] -0.054 | [5] -0.03 | [6] 0.118 | [7] 0.11 | [8] 0.01 | [9] -0.025 | [10] 0.023

LTF (UniProt P02788)
inactive: [1] -0.135 | [2] 0.288 | [3] -0.119 | [4] 0.142 | [5] -0.052 | [6] -0.118 | [7] -0.032 | [8] 0.181 | [9] 0.036 | [10] 0.248

MARCHF5 (UniProt Q9NX47)
inactive: [1] -0.053 | [2] 0.029 | [3] -0.004 | [4] -0.016 | [5] -0.015 | [6] -0.045 | [7] -0.027 | [8] 0.04 | [9] 0.038 | [10] 0.183

LRRFIP2 (UniProt Q9Y608)
inactive: [1] 0.008 | [2] -0.009 | [3] -0.039 | [4] -0.013 | [5] -0.1 | [6] -0.004 | [7] 0.089 | [8] 0.026 | [9] 0.003 | [10] 0.094

MAPRE2 (UniProt Q15555)
inactive: [1] 0.575 | [2] -0.17 | [3] 0.112 | [4] 0.027 | [5] 0.009 | [6] 0.001 | [7] 0.032 | [8] -0.034 | [9] 0.005 | [10] -0.03

LSM7 (UniProt Q9UK45)
inactive: [1] -0.059 | [2] 0.002 | [3] -0.009 | [4] -0.028 | [5] -0.099 | [6] 0.03 | [7] -0.007 | [8] 0.079 | [9] -0.032 | [10] -0.014

MAGI1 (UniProt Q96QZ7)
inactive: [1] -0.031 | [2] 0.053 | [3] -0.044 | [4] 0.084 | [5] -0.01 | [6] 0.005 | [7] 0.042 | [8] -0.012 | [9] 0.01 | [10] 0.053

MAGEC1 (UniProt O60732)
inactive: [1] 0.009 | [2] 0.255 | [3] 0.078 | [4] 0.072 | [5] -0.042 | [6] -0.01 | [7] 0.012 | [8] -0.196 | [9] 0.122 | [10] -0.052

MAP7 isoform 7 (UniProt Q14244)
inactive: [1] -0.097 | [2] 0.29 | [3] 0.022 | [4] 0.093 | [5] -0.088 | [6] -0.007 | [7] 0.049 | [8] -0.214 | [9] 0.127 | [10] -0.084

MARCKSL1 (UniProt P49006)
inactive: [1] -0.074 | [2] 0.002 | [3] -0.033 | [4] -0.011 | [5] -0.093 | [6] 0.073 | [7] -0.027 | [8] 0.028 | [9] -0.061 | [10] 0.026

LRRC8C (UniProt Q8TDW0)
inactive: [1] 0.081 | [2] 0.07 | [3] -0.05 | [4] 0.232 | [5] -0.128 | [6] -0.087 | [7] 0.061 | [8] -0.306 | [9] -0.02 | [10] -0.295

MACC1 (UniProt Q6ZN28)
inactive: [1] 0.04 | [2] -0.061 | [3] 0 | [4] 0.025 | [5] -0.273 | [6] -0.378 | [7] 0.229 | [8] -0.014 | [9] 0.064 | [10] 0.072
